Values quoted from earlier work, collected in patent publication EP3062762B1, “STABLE SOLUTIONS CONTAINING A PHYSIOLOGICAL COOLING REAGENT AND USE THEREOF” (priority 2013, dated 2015).
At least one read-out could not be matched to a standard name with certainty.

Details: decadic logarithm of the n-octanol-water partition coefficient; cited from earlier work

For `CC(O)CCO` (stereo not shown) [1,3-Butandiol], the “log Kow” value is listed as -0,728.
